± gives the standard deviation of the averaged measurements. Only a part is listed here, and it is no random draw. Most entries show no effect beyond the scatter of the controls.
Compound: Nc1ncnc2c1ncn2[C@@H]1O[C@H](COP(=O)(O)OP(=O)(O)NP(=O)(O)O)[C@@H](O)[C@H]1O [adenylyl imidodiphosphate]
Assay: NP40-soluble protein abundance relative to vehicle (solubility fold change) (ratio); higher = more soluble protein in presence of AMP-PNP
Procedure, shortened: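 Across three independent experiments, values are fold changes against the detergent-processed vehicle for each replicate, based on vsn-normalised intensities. The samples were Jurkat crude lysate treated with eight concentrations (0.1 to 10 mM) for 10 min at room temperature and then 3 min at 37 °C. Lysate was solubilised with 0.8% NP40 and benzonase, ultracentrifuged, and the supernatant analysed by TMT-labelled LC-MS/MS.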

Protein sequences, listed by entry. Tags and fused reporters are not part of them. Lines headed by an entry give the natural chain unless they say otherwise; changes in a name come on top.
UniProt P32856: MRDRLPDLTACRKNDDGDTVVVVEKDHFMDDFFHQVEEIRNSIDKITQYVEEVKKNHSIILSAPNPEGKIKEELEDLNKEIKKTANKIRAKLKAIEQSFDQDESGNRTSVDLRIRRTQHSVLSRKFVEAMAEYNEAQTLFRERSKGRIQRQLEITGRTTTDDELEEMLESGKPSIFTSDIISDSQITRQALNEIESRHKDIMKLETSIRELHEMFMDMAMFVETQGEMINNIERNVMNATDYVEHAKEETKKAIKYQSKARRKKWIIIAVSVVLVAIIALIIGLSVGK
UniProt P36405: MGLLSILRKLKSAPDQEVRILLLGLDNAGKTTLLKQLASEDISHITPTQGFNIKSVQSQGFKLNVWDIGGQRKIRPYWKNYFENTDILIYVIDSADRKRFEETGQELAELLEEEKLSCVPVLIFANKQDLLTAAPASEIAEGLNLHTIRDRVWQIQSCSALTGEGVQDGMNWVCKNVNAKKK
UniProt P16989, whole entry: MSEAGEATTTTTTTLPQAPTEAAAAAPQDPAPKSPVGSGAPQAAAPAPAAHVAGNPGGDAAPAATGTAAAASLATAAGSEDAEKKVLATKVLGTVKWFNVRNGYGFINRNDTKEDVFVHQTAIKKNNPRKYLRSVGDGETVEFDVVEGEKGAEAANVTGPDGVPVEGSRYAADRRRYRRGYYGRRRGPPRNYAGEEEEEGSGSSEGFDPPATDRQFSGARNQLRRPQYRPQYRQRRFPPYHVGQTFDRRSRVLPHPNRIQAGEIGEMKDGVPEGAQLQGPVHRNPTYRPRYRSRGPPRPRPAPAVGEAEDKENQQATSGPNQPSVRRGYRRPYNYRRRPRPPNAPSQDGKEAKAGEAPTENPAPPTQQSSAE
UniProt P28838: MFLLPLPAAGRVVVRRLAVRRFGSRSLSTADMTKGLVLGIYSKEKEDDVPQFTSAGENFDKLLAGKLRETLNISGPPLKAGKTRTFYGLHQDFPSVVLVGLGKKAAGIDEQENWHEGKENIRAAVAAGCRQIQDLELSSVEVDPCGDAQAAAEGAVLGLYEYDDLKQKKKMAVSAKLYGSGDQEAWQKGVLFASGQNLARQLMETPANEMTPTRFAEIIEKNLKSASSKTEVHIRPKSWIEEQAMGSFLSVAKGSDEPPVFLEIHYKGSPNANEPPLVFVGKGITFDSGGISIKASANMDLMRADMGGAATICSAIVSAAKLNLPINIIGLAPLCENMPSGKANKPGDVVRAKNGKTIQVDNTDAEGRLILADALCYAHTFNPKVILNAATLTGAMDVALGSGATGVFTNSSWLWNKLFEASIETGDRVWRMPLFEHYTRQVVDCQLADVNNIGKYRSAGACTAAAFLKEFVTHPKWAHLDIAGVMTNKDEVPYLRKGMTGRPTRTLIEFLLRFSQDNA
UniProt P17858: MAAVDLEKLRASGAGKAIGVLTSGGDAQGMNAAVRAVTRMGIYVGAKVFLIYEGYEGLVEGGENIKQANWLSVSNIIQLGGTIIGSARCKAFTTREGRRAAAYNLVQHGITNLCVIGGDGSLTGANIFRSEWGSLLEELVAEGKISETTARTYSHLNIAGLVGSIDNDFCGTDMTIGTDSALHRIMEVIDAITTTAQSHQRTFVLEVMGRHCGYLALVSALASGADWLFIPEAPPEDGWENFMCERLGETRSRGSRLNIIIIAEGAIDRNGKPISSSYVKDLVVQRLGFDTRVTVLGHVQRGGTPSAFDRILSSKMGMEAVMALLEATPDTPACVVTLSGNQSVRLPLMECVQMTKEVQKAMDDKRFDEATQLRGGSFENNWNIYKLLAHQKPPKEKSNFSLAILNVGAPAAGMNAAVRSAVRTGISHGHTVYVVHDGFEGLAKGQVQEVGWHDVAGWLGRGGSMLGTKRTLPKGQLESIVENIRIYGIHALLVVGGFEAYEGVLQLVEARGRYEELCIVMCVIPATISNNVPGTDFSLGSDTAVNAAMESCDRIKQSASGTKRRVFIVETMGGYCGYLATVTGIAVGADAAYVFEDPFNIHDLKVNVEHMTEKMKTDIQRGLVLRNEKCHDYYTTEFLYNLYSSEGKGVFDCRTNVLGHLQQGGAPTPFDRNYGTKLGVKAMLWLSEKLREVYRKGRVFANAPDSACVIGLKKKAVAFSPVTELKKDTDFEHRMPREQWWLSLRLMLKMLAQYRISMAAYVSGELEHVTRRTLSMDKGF
UniProt P38606, whole entry: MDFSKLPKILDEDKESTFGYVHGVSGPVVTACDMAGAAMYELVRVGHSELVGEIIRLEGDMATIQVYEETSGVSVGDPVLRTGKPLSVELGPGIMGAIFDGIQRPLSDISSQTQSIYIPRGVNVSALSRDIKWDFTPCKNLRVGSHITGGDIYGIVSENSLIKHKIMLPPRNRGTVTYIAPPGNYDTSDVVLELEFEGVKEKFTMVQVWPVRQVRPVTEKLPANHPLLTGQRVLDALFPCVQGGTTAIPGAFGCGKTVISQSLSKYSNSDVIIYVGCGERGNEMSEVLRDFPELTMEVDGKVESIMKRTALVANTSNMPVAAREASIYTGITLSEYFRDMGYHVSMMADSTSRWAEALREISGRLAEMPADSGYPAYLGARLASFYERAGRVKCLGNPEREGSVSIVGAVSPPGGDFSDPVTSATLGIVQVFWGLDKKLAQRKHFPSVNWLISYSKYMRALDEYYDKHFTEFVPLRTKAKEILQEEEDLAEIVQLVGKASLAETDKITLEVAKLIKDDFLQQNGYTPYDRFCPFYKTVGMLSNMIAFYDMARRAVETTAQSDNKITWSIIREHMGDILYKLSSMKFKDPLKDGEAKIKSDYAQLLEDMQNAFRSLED
UniProt P19623: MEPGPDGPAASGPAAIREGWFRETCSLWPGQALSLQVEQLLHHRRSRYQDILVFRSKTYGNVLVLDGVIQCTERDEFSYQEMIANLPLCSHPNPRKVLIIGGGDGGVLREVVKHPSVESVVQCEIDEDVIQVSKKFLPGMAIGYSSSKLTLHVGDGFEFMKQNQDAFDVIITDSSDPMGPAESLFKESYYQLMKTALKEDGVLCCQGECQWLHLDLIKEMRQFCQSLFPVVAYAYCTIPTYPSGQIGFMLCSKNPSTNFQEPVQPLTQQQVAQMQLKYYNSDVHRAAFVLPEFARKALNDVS
UniProt P36957: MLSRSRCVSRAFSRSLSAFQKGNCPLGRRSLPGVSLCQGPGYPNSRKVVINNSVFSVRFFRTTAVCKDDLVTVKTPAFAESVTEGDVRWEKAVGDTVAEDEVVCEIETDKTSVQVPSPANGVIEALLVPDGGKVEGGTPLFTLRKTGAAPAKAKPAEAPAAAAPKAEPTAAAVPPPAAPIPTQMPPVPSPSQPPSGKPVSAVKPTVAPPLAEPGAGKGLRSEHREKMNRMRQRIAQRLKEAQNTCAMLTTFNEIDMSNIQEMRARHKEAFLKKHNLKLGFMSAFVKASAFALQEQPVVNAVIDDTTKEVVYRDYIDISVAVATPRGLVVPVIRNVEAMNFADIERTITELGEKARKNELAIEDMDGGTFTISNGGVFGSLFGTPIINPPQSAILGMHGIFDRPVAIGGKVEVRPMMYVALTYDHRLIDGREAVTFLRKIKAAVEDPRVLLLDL
UniProt P31946: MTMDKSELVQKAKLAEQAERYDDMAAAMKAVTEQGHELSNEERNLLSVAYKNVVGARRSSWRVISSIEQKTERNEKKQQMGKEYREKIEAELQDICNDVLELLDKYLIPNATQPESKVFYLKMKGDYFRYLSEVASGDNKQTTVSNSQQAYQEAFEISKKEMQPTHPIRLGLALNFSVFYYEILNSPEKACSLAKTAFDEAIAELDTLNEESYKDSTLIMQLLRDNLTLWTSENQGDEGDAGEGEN
UniProt P38646: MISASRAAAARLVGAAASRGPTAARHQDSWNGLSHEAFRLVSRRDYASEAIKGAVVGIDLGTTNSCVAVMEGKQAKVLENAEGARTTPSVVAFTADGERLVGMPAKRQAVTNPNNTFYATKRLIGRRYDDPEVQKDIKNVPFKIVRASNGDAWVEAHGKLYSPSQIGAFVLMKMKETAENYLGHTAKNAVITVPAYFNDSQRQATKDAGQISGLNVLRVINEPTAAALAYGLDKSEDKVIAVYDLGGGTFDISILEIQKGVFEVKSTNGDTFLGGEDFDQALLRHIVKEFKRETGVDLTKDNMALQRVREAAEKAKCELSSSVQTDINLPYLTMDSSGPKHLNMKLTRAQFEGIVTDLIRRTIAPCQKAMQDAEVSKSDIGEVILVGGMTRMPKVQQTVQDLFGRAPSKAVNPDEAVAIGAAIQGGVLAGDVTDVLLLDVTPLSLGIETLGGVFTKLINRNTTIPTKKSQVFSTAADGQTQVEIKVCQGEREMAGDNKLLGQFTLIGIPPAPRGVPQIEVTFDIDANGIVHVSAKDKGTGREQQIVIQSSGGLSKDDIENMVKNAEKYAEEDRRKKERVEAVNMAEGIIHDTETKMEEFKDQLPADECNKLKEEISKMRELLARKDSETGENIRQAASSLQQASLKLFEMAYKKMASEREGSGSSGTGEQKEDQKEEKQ
UniProt P17098: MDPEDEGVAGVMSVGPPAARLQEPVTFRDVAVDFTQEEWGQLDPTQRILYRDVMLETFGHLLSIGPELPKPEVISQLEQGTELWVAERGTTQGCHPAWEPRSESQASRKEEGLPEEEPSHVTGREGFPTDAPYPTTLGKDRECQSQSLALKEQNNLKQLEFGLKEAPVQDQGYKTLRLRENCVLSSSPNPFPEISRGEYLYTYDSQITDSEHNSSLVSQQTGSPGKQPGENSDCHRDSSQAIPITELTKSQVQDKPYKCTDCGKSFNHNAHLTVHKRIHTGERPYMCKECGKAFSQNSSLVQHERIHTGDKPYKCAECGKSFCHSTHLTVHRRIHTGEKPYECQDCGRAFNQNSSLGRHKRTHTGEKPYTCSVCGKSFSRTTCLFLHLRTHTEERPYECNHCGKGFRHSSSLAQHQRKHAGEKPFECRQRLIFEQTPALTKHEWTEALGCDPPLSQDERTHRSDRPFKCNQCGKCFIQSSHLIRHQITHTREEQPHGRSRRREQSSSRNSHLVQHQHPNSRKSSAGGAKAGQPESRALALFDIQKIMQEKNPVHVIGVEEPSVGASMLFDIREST
UniProt P37108: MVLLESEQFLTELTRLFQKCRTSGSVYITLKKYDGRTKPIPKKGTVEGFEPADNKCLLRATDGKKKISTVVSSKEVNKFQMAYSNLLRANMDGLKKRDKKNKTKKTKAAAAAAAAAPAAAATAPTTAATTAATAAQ
UniProt P35250, whole entry: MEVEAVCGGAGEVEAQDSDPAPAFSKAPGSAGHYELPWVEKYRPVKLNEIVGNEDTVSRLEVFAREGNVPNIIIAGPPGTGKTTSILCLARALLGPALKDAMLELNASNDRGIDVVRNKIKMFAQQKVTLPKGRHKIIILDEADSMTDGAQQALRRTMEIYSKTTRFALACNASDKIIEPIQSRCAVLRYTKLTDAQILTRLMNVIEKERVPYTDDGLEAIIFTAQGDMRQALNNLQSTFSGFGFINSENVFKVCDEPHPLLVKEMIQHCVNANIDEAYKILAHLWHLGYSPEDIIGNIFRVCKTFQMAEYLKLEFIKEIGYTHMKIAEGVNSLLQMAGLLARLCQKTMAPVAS
UniProt P35249, whole entry: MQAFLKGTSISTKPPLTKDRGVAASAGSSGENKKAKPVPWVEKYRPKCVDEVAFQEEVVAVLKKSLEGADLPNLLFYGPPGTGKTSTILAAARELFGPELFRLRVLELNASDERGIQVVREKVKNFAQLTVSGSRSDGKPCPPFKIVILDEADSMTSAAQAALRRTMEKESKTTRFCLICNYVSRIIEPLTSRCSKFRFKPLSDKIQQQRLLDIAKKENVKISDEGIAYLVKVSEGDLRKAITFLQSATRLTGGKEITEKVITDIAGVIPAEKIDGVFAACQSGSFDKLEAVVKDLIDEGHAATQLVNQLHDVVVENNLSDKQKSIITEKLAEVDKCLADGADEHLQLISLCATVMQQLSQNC
UniProt P24666: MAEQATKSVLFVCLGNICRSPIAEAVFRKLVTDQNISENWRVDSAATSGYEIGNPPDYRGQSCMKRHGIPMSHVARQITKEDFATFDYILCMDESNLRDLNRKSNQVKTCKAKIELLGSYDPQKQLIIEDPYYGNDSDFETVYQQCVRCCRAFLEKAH
UniProt P30038: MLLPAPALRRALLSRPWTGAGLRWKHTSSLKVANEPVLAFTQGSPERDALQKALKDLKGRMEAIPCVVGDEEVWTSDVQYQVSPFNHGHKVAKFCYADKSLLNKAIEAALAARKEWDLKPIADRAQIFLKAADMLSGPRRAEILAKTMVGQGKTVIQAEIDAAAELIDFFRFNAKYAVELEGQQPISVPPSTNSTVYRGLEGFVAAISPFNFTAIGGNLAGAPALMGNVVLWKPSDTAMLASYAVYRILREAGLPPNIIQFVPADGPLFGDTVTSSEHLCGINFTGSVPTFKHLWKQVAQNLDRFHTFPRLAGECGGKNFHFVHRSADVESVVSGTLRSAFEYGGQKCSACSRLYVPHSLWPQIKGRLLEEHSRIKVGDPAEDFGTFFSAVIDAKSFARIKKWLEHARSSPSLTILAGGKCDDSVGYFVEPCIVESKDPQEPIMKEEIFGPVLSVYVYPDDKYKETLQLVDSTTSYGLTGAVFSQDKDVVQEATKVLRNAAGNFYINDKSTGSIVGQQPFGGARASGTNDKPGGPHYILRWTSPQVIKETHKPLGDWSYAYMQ

Target	NP40-soluble protein abundance (concentration: 0.1mM)	NP40-soluble protein abundance (concentration: 0.5mM)
UniProt P19367 and related entries	1.04 ± 0.027	1.01 ± 0.065
UniProt P27635 and related entries	0.999 ± 0.066	0.989 ± 0.082
ATIC (UniProt P31939)	1 ± 0.023	1.03 ± 0.05
GRK5 (UniProt P34947)	0.996 ± 0.033	1.02 ± 0.014
RFX1 (UniProt P22670)	1 ± 0.038	1.01 ± 0.035
UniProt P29350 and related entries	1.01 ± 0.011	1.01 ± 0.035
ATP6V1B2 (UniProt P21281)	0.994 ± 0.025	1.01 ± 0.054
UniProt P37837 and related entries	1 ± 0.032	1.01 ± 0.057
M6PR (UniProt P20645)	0.961 ± 0.066	1.03 ± 0.084
CSRP1 (UniProt P21291)	0.9745 ± 0.0044	1.01 ± 0.023
UniProt P18858 and related entries	1.01 ± 0.014	1 ± 0.02
GLDC (UniProt P23378)	0.982 ± 0.039	0.961 ± 0.021
UniProt P29590 and related entries	0.997 ± 0.04	1.02 ± 0.051
UniProt P32856 and related entries	1.01 ± 0.03	1.01 ± 0.02
GTF2E1 (UniProt P29083)	1.04 ± 0.049	1 ± 0.021
UniProt P25098	1 ± 0.015	1.03 ± 0.011
UniProt P30154 and related entries	0.96 ± 0.032	0.978 ± 0.026
RPS3 (UniProt P23396)	1.05 ± 0.019	0.98 ± 0.077
PRKAR1B (UniProt P31321)	1.05 ± 0.038	1.05 ± 0.026
UniProt P31948 and related entries	0.977 ± 0.025	0.999 ± 0.055
ARL3 (UniProt P36405)	1.02 ± 0.053	0.984 ± 0.089
UniProt P18859 and related entries	0.981 ± 0.098	0.966 ± 0.046
UniProt P35626	1.03 ± 0.026	1.006 ± 0.0083
PGAM1 (UniProt P18669)	0.881 ± 0.09	0.964 ± 0.025

Target	NP40-soluble protein abundance (concentration: 0.1mM)	NP40-soluble protein abundance (concentration: 0.5mM)
PHB (UniProt P35232)	1 ± 0.016	1 ± 0.032
UniProt P35251 and related entries	0.985 ± 0.012	1.06 ± 0.043
DEK (UniProt P35659)	0.979 ± 0.043	1.04 ± 0.055
UniProt P17544-2|P17544-4|P17544-6	0.969 ± 0.039	0.998 ± 0.05
SLC9A1 (UniProt P19634)	0.964 ± 0.036	0.964 ± 0.043
ZNF22 (UniProt P17026)	0.9665 ± 0.0054	0.982 ± 0.024
UniProt P30049	1.01 ± 0.018	0.996 ± 0.044
UniProt P17812	0.971 ± 0.017	0.962 ± 0.046
BLVRB (UniProt P30043)	1.01 ± 0.031	1.01 ± 0.036
IGHMBP2 (UniProt P38935)	1.11 ± 0.05	1.15 ± 0.032
SPR (UniProt P35270)	0.985 ± 0.043	1.02 ± 0.014
ECHS1 (UniProt P30084)	0.98 ± 0.023	1.01 ± 0.011
CHML (UniProt P26374)	0.967 ± 0.0024	0.9771 ± 0.0092
UniProt P18206 and related entries	0.963 ± 0.017	0.977 ± 0.041
UniProt P32929 and related entries	1.02 ± 0.043	0.984 ± 0.079
RPS19 (UniProt P39019)	1.06 ± 0.058	1.04 ± 0.042
IL2RG (UniProt P31785)	1.02 ± 0.044	0.985 ± 0.024
UniProt P31327 and related entries	1.019 ± 0.0038	1 ± 0.011
UniProt P20340-2	1.03 ± 0.021	1.05 ± 0.025
RPL13 (UniProt P26373)	1.06 ± 0.022	1.01 ± 0.025
UniProt P16989 and related entries	0.985 ± 0.045	0.965 ± 0.022
UniProt P30281 and related entries	1.04 ± 0.015	0.9985 ± 0.006
LMNB1 (UniProt P20700)	0.962 ± 0.019	0.959 ± 0.061
UniProt P20020 and related entries	1.04 ± 0.043	0.985 ± 0.026

A few values from the results shown.
Value of UniProt P17544-2|P17544-4|P17544-6 under NP40-soluble protein abundance (concentration: 0.5mM): 0.998 ± 0.05
Value of LMNB1 (UniProt P20700) under NP40-soluble protein abundance (concentration: 0.1mM): 0.962 ± 0.019

Continued.

Target	NP40-soluble protein abundance (concentration: 0.1mM)	NP40-soluble protein abundance (concentration: 0.5mM)
XPA (UniProt P23025)	0.9888 ± 0.0059	0.972 ± 0.019
UQCRC1 (UniProt P31930)	1 ± 0.021	1.013 ± 0.0041
SFPQ (UniProt P23246)	1.02 ± 0.04	1.1 ± 0.014
MAN1A1 (UniProt P33908)	1.01 ± 0.013	0.956 ± 0.029
UniProt P28838 and related entries	0.98 ± 0.012	0.976 ± 0.017
UniProt P22001	0.994 ± 0.03	0.997 ± 0.021
UniProt P26639	1.02 ± 0.024	0.991 ± 0.056
DTYMK (UniProt P23919)	1.013 ± 0.0085	0.987 ± 0.017
PFKL (UniProt P17858)	1.06 ± 0.032	1.01 ± 0.088
UniProt P23469 and related entries	1.01 ± 0.025	0.987 ± 0.042
ACO1 (UniProt P21399)	0.991 ± 0.014	0.992 ± 0.025
ICAM3 (UniProt P32942)	0.963 ± 0.024	1.01 ± 0.059
ATP6V1A (UniProt P38606)	1.018 ± 0.0053	1 ± 0.047
SOAT1 (UniProt P35610)	1 ± 0.045	0.996 ± 0.037
UniProt P25705 and related entries	1.01 ± 0.011	1.02 ± 0.015
UniProt P25788 and related entries	0.986 ± 0.011	0.985 ± 0.022
DNAJA1 (UniProt P31689)	0.942 ± 0.09	0.927 ± 0.063
PPIF (UniProt P30405)	0.973 ± 0.021	1 ± 0.035
UniProt P33316 and related entries	0.986 ± 0.028	0.999 ± 0.021
SRM (UniProt P19623)	1.01 ± 0.047	0.985 ± 0.046
UniProt P18846 and related entries	0.935 ± 0.032	0.965 ± 0.03
UniProt P20290 and related entries	0.974 ± 0.063	0.997 ± 0.045
UniProt P17096 and related entries	0.975 ± 0.036	1.06 ± 0.27
UniProt P27361	1.02 ± 0.041	1.04 ± 0.075

Target	NP40-soluble protein abundance (concentration: 0.1mM)	NP40-soluble protein abundance (concentration: 0.5mM)
UniProt P18583 and related entries	0.996 ± 0.065	1 ± 0.053
UniProt P34896 and related entries	1.03 ± 0.025	1 ± 0.065
OSBP (UniProt P22059)	0.971 ± 0.026	0.951 ± 0.026
UniProt P28799 and related entries	0.9777 ± 0.0086	1.02 ± 0.06
SDHB (UniProt P21912)	0.976 ± 0.029	1.04 ± 0.069
DLST (UniProt P36957)	1.08 ± 0.1	1.06 ± 0.081
FDFT1 (UniProt P37268)	1.03 ± 0.04	1.01 ± 0.057
YWHAB (UniProt P31946)	1 ± 0.062	1.07 ± 0.088
CD82 (UniProt P27701)	1.02 ± 0.039	1.13 ± 0.17
UniProt P35240 and related entries	0.989 ± 0.041	0.996 ± 0.028
PGM1 (UniProt P36871)	1.01 ± 0.035	0.998 ± 0.072
HSPA9 (UniProt P38646)	0.936 ± 0.079	1.01 ± 0.092
ZNF8 (UniProt P17098)	0.9759 ± 0.0037	1.01 ± 0.052
SRP14 (UniProt P37108)	0.988 ± 0.028	1.06 ± 0.098
MAT2A (UniProt P31153)	1 ± 0.043	1.02 ± 0.03
RFC2 (UniProt P35250)	1.04 ± 0.067	1.05 ± 0.024
ABCD1 (UniProt P33897)	1.03 ± 0.023	1.008 ± 0.01
GLRX (UniProt P35754)	1.03 ± 0.011	1.02 ± 0.038
RFC4 (UniProt P35249)	1.02 ± 0.021	1.04 ± 0.032
ACAT1 (UniProt P24752)	0.961 ± 0.0098	1.02 ± 0.026
UniProt P24666 and related entries	1 ± 0.025	1.03 ± 0.032
RAB4A (UniProt P20338)	1.023 ± 0.0026	1.02 ± 0.027
PPM1A (UniProt P35813)	1 ± 0.032	1.04 ± 0.047
PEBP1 (UniProt P30086)	0.999 ± 0.022	1.02 ± 0.026

Target	NP40-soluble protein abundance (concentration: 0.1mM)	NP40-soluble protein abundance (concentration: 0.5mM)
UniProt P32519 and related entries	0.955 ± 0.011	0.975 ± 0.016
HMGCL (UniProt P35914)	0.968 ± 0.035	0.966 ± 0.015
EEF1B2 (UniProt P24534)	1.09 ± 0.15	0.901 ± 0.17
ZKSCAN1 (UniProt P17029)	1 ± 0.014	1 ± 0.024
RPL4 (UniProt P36578)	1.07 ± 0.023	1.05 ± 0.058
CHM (UniProt P24386)	0.99 ± 0.025	0.959 ± 0.043
UniProt P29144 and related entries	1.04 ± 0.045	0.989 ± 0.044
UniProt P21964 and related entries	0.985 ± 0.047	0.961 ± 0.084
UniProt P33240 and related entries	0.9953 ± 0.006	0.992 ± 0.051
UniProt P36542	0.996 ± 0.05	1.03 ± 0.022
UniProt P31350 and related entries	0.993 ± 0.027	0.951 ± 0.051
UniProt P21675 and related entries	0.997 ± 0.052	0.997 ± 0.04
UniProt P27824 and related entries	0.986 ± 0.0091	1.01 ± 0.013
UniProt P19793-2	0.992 ± 0.024	1.01 ± 0.028
FKBP2 (UniProt P26885)	0.992 ± 0.015	0.999 ± 0.018
AK4 (UniProt P27144)	0.995 ± 0.045	1.03 ± 0.1
ALDH4A1 (UniProt P30038)	0.992 ± 0.024	0.975 ± 0.039
UniProt P30203 and related entries	1.02 ± 0.018	1.02 ± 0.013
CA8 (UniProt P35219)	1 ± 0.021	0.999 ± 0.042
UniProt P36507	1.03 ± 0.031	1.06 ± 0.049
UniProt P19022 and related entries	0.97 ± 0.024	0.973 ± 0.028
UniProt P28331 and related entries	1.01 ± 0.0098	0.988 ± 0.017
CBL (UniProt P22681)	1 ± 0.018	0.995 ± 0.015
UniProt P28074 and related entries	1.02 ± 0.018	0.99 ± 0.097

Three successive records already listed:
Target	NP40-soluble protein abundance (concentration: 0.1mM)	NP40-soluble protein abundance (concentration: 0.5mM)
MAN1A1 (UniProt P33908)	1.01 ± 0.013	0.956 ± 0.029
UniProt P28838 and related entries	0.98 ± 0.012	0.976 ± 0.017
UniProt P22001	0.994 ± 0.03	0.997 ± 0.021
